Test: general procedure: solution-phase peptide synthesis; HATU, diisopropylethyl amine

Q: With “S-((E)-4-((SR,8S,11S)-8-isopropyl-5-methyl-6,9,13-trioxo-10-oxa-3,17-dithia-7,14,19,20-tetraazatricyclo[14,2,1,12,5]icosa-1(18),2(20),16(19)-trien-11-yl)but-3-en-1-yl) octanethioate” as the substance, how does the step yield (lipidation step) read?
A: The step yield was 42%.

Q: Which step yield (coupling step) does the source give for “(R)-2′-((5S,8S)-5-((E)-4-chlorobut-1-en-1-yl)-8-isopropyl-12,12-dimethyl-3,7,10-trioxo-6,11-dioxa-2,9-diazatridecyl)-4-methyl-4,5-dihydro-[2,4′-bithiazole]-4-carboxylic acid” here?
A: Its step yield is 88%.

Q: With “(7S, 10S)-10-((E)-4-chlorobut-1-en-1-yl)-7-isopropyl-4,4-dimethyl-9-oxa-16-thia-3,6,13,18-tetraazabicyclo[13.2.1]octadeca-1(17),15(18)-diene-2,5,8,12-tetraone” as the substance, how does the cyclisation yield (cyclisation step, overall from Example 5 Boc/tBu protected precursor) read?
A: The cyclisation yield was 75% overall.

Q: With “(S)-S-((E)-4-((7S,10S)-7-isopropyl-4,4-dimethyl-2,5,8,12-tetraoxo-9-oxa-16-thia-3,6,13,18-tetraazabicyclo[13.2.1]octadeca-1(17),15(18)-dien-10-yl)but-3-en-1-yl) 2-((tert-butoxycarbonyl)amino)-3-methylbutanethioate” as the substance, how does the step yield (late stage modification step) read?
A: The step yield was 80%.

Q: For “(S)-S-((E)-4-((7S, 10S)-7-isopropyl-4,4-dimethyl-2,5,8,12-tetraoxo-9-oxa-16-thia-3,6,13,18-tetraazabicyclo[13.2.1 ]octadeca-1(17),15(18)-dien-10-yl)but-3-en-1-yl) 2-amino-3-methylbutanethioate benzenesulfonate”, which step yield (late stage modification step, benzenesulfonate) is on record?
A: Its step yield is 50%.

Q: For “tert-butyl 2-((5S,8S)-5-((E)-4-chlorobut-1-en-1-yl)-8-isopropyl-11,11,15,15-tetramethyl-3,7,10,13-tetraoxo-6,14-dioxa-2,9,12-triazahexadecyl)thiazole-4-carboxylate acid trifluoroacetate”, which step yield (coupling step, trifluoroacetate) is on record?
A: The step yield was 90%.

Q: For “(S)-S-((E)-4-((7S,10S)-7-isopropyl-4,4-dimethyl-2,5,8,12-tetraoxo-9-oxa-16-thia-3,6,13,18-tetraazabicyclo[13.2.1]octadeca-1(17),15(18)-dien-10-yl)but-3-en-1-yl) 2-amino-3-methylbutanethioate hydrochloride”, which step yield (late stage modification step, hydrochloride) is on record?
A: Its step yield is 95%.

Q: With “S-((E)-4-((7S,10S)-7-isopropyl-4,4-dimethyl-2,5,8,12-tetraoxo-9-oxa-16-thia-3,6,13,18-tetraazabicyclo[13.2.1]octadeca-1(17),15(18)-dien-10-yl)but-3-en-1-yl) octanethioate” as the substance, how does the step yield (lipidation step) read?
A: Its step yield is 90%.
